Test results reported in patent US8822378B2, “N-(tetrazol-5-yl)- and N-(triazol-5-yl)arylcarboxamides and use thereof as herbicides” (Bayer Intellectual Property GmbH, priority 2011, dated 2014).
Some of these results come from one statement about several compounds together.

Key:
Format in all cases: in vivo
[1] = system: Veronica persica; test: Post-emergence herbicidal action against harmful plants; settings: 80 g/ha, treated at one-leaf stage, rated visually after about 3 weeks vs untreated controls
[2] = system: Stellaria media; test: as above; settings: 80 g/ha, treated at one-leaf stage, rated visually after about 3 weeks vs untreated controls
[3] = system: Matricara inodora; test: Pre-emergence herbicidal action against harmful plants; settings: 320 g/ha, visual assessment after 3 weeks vs untreated controls (100% = plants died)
[4] = system: Viola tricolor; test: Post-emergence herbicidal action against harmful plants; settings: 80 g/ha, treated at one-leaf stage, rated visually after about 3 weeks vs untreated controls
[5] = system: Veronica persica; test: Pre-emergence herbicidal action against harmful plants; settings: 320 g/ha, visual assessment after 3 weeks vs untreated controls (100% = plants died)
[6] = system: Abutilon theophrasti; test: Post-emergence herbicidal action against harmful plants; settings: 80 g/ha, treated at one-leaf stage, rated visually after about 3 weeks vs untreated controls
[7] = system: Amaranthus retroflexus; test: Pre-emergence herbicidal action against harmful plants; settings: 320 g/ha, visual assessment after 3 weeks vs untreated controls (100% = plants died)
[8] = system: Pharbitis purpureum; test: Post-emergence herbicidal action against harmful plants; settings: 80 g/ha, treated at one-leaf stage, rated visually after about 3 weeks vs untreated controls
[9] = system: Stellaria media; test: Pre-emergence herbicidal action against harmful plants; settings: 320 g/ha, visual assessment after 3 weeks vs untreated controls (100% = plants died)
[10] = system: Abutilon theophrasti; test: as above; settings: 320 g/ha, visual assessment after 3 weeks vs untreated controls (100% = plants died)
[11] = system: Viola tricolor; test: as above; settings: 320 g/ha, visual assessment after 3 weeks vs untreated controls (100% = plants died)
[12] = system: Matricara inodora; test: Post-emergence herbicidal action against harmful plants; settings: 80 g/ha, treated at one-leaf stage, rated visually after about 3 weeks vs untreated controls

Measured: herbicidal activity in percent

COCCn1nnnc1NC(=O)c1ccc(C(F)(F)F)cc1S(C)(=O)=O [Compound 1-44]
at least 90%: all assays above

COCCn1nnnc1NC(=O)c1ccc(Cl)c(OCCSC)c1C [Compound 1-125]
at least 90%: all assays above

COCCn1nnnc1NC(=O)c1ccc(Br)c(OCCSC)c1C [Compound 1-154]
at least 90%: all assays above

CCSc1c(Br)ccc(C(=O)Nc2nnnn2CCOC)c1C [Compound 1-162]
at least 90%: all assays above

COCCn1nnnc1NC(=O)c1ccc(S(C)(=O)=O)c(N(C)C)c1C [Compound 1-197]
at least 90%: all assays above

COCCn1nnnc1NC(=O)c1ccc(S(C)(=O)=O)c(NC(C)C)c1C [Compound 1-200]
at least 90%: all assays above

COCCn1nnnc1NC(=O)c1ccc(S(C)(=O)=O)c(-n2cccn2)c1C [Compound 1-215]
at least 90%: all assays above

COCCn1nnnc1NC(=O)c1ccc(S(C)(=O)=O)c(Cl)c1C [Compound 1-245]
at least 90%: all assays above

COCCn1nnnc1NC(=O)c1ccc(S(C)(=O)=O)c(SC)c1C [Compound 1-246]
at least 90%: all assays above

COCCn1nnnc1NC(=O)c1ccc(C)c(S(C)(=O)=O)c1Cl [Compound 1-345]
at least 90%: all assays above

COCCn1nnnc1NC(=O)c1ccc(C(F)(F)F)c([S+](C)[O-])c1OC (stereo not drawn) [Compound 1-518]
at least 90%: [1] | [2] | [4] | [6] | [8] | [12]

COCCn1nnnc1NC(=O)c1ccc(C(F)(F)F)nc1COC [Compound 3-5]
at least 90%: [1] | [2] | [4] | [6] | [8] | [12]

COCCn1ncnc1NC(=O)c1ccc(Cl)nc1Cl [Compound 3-23]
at least 90%: [1] | [2] | [4] | [6] | [8] | [12]
